Laboratory results: PubChem BioAssay AID504467 (National Center for Advancing Translational Sciences (NCATS), 2011)
Hit rate of the full screen: of about 330,000 compounds, about 7,700 (2.3%) were called active. Inconclusive results, whose numbers are uncertain, are shown with a selection of clear calls. Calls follow the shape of the dose curve; as a rule, active = well fitted inhibition curve with a large enough effect; inconclusive = small, poorly fitted or top-dose-only effect, or effect the other way; inactive = flat fitted curve, though single readings scatter. Potencies of inconclusive entries are doubtful fits and often do not repeat.

Test: qHTS screen for small molecules that inhibit ELG1-dependent DNA repair in human embryonic kidney (HEK293T) cells expressing luciferase-tagged ELG1; also: nearly all actives have a fitted effect of over 55% in size
Details: HEK293T ELG1-luciferase reporter, luminescence, 16 h, DNA damage induced by 5-fluorouridine; series mostly up to 46.1 µM
Summary of the method: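 Reporter activity after DNA damage by 5-fluorouridine is monitored. Compound-treated cells incubate 16 hr at 37 °C, then ONE-Glo is added for 30 min before luminescence reading.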
Potency is read from the fitted curve at half-maximal effect.

SMILES	Potency
COc1ccc(CC(=O)NC2CC2)cc1OC	inactive
CN(c1ccccc1)c1ccc(/C=C/[N+](=O)[O-])cc1	inconclusive: 4.61 µM [inhibitor, partial curve, poor fit]
Cc1cccc(N2C(=O)N3[C@@H]4c5ccccc5OC[C@@H]4[C@@H](c4ccccc4)[C@]3(C)C2=O)c1	inconclusive: 20.6 µM [inhibitor, single point]
COC(=O)c1ccc2c(=O)n(CCN3CCOCC3)c(SCC(=O)Nc3ccc(C)cc3)nc2c1	inconclusive: 29.1 µM [inhibitor, single point]
C=CCn1c(COc2cccc(C)c2)nnc1SCC(=O)NC(=O)NCc1ccco1	inactive
O=C(NC(=S)Nc1cccc2c(O)cccc12)c1ccco1	inactive
COc1ccc(C(=O)Nc2cccnc2Sc2ccc(Cl)cc2)cc1	inconclusive: 25.9 µM [inhibitor, single point]
CC(=O)Oc1ccc2c(c1)Oc1cc(OC(C)=O)ccc1C21OC(=O)c2ccccc21	inconclusive: 18.4 µM [activator, partial curve, poor fit]
O=C1/C(=C/c2ccccc2)SC(=S)N1CCCC(=O)N1CCCCC1CCO (stereo not given)	inconclusive: 16.4 µM [inhibitor, partial curve, poor fit]
CC(=O)c1ccc(-n2c(=O)[nH]c(=O)c3c(N)c(C(=O)c4ccc(Cl)cc4)sc32)cc1	inconclusive: 29.1 µM [activator, single point]
CCCc1cc(=O)n2[nH]cc(-c3ccc(Cl)cc3)c2n1	inconclusive: 35.5 µM [inhibitor, single point]
COc1ccc(Cc2nnc(NC(=O)c3ccccc3)s2)cc1OC	inconclusive: 0.206 µM [inhibitor, full curve, poor fit]
COc1cccc(-c2nnc(NC(C)=O)o2)c1	inconclusive: 23.1 µM [activator, single point]
CC1CCN(c2nnc(-c3cccs3)c3ccccc23)CC1	inactive
CC1CCC(n2c(=S)[nH]c3ccccc3c2=O)CC1 (stereo not given)	inconclusive: 20.6 µM [activator, partial curve, poor fit]
O=C(COc1ccc(Cl)cc1)Nc1ccccc1N1CCOCC1	inconclusive: 20.6 µM [inhibitor, single point]
Cc1ccc2nc(-c3cccc(SC4CCCCC4)c3)c(NC3CCCCC3)n2c1	inconclusive: 29.1 µM [inhibitor, single point]
CCN(CC)c1ccc(C=Nc2ccc(N(C)C)cc2)c(O)c1	inconclusive: 14.6 µM [activator, partial curve]
CCOc1ccc(NC(=O)Cc2ccccc2)cc1	inconclusive: 18.4 µM [activator, partial curve]
COc1ccc(-c2noc(CN3CCN(C(=O)c4cccs4)CC3)n2)c(OC)c1OC	inconclusive: 16.4 µM [inhibitor, partial curve, poor fit]
O=C(CSc1ncn[nH]1)Nc1cc(S(=O)(=O)N2CCCC2)ccc1Cl	inactive
O=C(CCSc1nnc(-c2ccco2)o1)Nc1ccc(Cl)cc1	inconclusive: 18.4 µM [inhibitor, single point]
CC(=O)C(Cc1cnc(Cl)s1)(Cc1cnc(Cl)s1)C(C)=O	inconclusive: 29.1 µM [activator, single point]
O=C(Nc1ccncc1)Nc1ccccc1Cl	inconclusive: 25.9 µM [activator, single point]

SMILES	Potency
O=C(N/N=C/c1cccc2ccccc12)C(=O)N1CCCC1	inconclusive: 13 µM [activator, partial curve]
Cc1ccc(OCCC(=O)OCC(=O)Nc2ccc(Cl)cn2)cc1	inactive
Cc1ccc(S(=O)(=O)N/N=C/c2ccc(O)c(O)c2)cc1[N+](=O)[O-]	inactive
CCOc1ccc(NC(=O)CC(=O)Nc2ccc(OCC)cc2)cc1	inconclusive: 14.6 µM [activator, partial curve]
CC(=O)c1ccc(N2CCN(C(=O)c3cccs3)C(C)C2)c(F)c1 (stereo not given)	inconclusive: 22.4 µM [inhibitor, single point]
COc1ccc(OC)c(-c2nn(-c3ccccc3)cc2C(=O)NCC(c2cccs2)N2CCOCC2)c1 (stereo not given)	inconclusive: 23.1 µM [inhibitor, single point]
CCCn1c(C2CCCN2c2nc(-c3ccc(C)cc3)cs2)nc2ccccc21 (stereo not given)	inconclusive: 16.4 µM [inhibitor, single point]
COc1ccc(Br)c(C(=O)OCC(=O)N2CCc3ccccc32)c1	inconclusive: 3.26 µM [activator, partial curve, poor fit]
CC(C)Sc1nnc(NC(=O)c2ccco2)s1	inconclusive: 18.3 µM [activator, partial curve]
COc1cc(OC)cc(C(=O)Oc2ccc(/C=N/Nc3nc4ccccc4s3)cc2OC)c1	inconclusive: 4.11 µM [activator, single point]
CN1C(=O)Nc2cccc3cccc1c23	inconclusive: 10.3 µM [activator, partial curve, poor fit]
O=C(CC(=O)Nc1ccccc1F)Nc1ccccc1F	inactive
Cc1cc(C)nc(SCc2ccc(F)cc2)n1	inconclusive: 23.1 µM [activator, partial curve, poor fit]
COc1ccc(NS(=O)(=O)c2ccc(C(=O)N3CCN(c4ccc(F)cc4)CC3)cc2)cc1	inconclusive: 5.8 µM [inhibitor, single point]
CCOC(=O)c1ccc(NC(=O)N(CC)CC)cc1	inconclusive: 5.01 µM [activator, partial curve]
COCC(C)NC(=O)CSc1nc(-c2ccccc2)c(-c2ccccc2)o1 (stereo not given)	inconclusive: 16.4 µM [inhibitor, partial curve]
Cc1ccc2c(C)c(C(=O)N3CCN(Cc4ccc5c(c4)OCO5)CC3)oc2c1C	inconclusive: 18.3 µM [activator, partial curve]
O=C1OCC2=C1C(c1ccc(F)cc1)Sc1ccccc1N2 (stereo not given)	inactive
O=C(COc1ccccc1[N+](=O)[O-])Nc1cccnc1	inconclusive: 29.1 µM [activator, single point]
CCN(CC)CCCNc1cc(C)nc2cc(-c3cccs3)nn12	inactive
COCCNC(=O)c1cc(-c2cccs2)on1	inconclusive: 23.1 µM [activator, partial curve]
CCOc1ccc(CNC(=S)N/N=C\c2ccc([N+](=O)[O-])cc2)cc1	inactive
CCOc1cc(/C=N/NC(=O)c2ccccn2)ccc1OC(=O)c1ccc(F)cc1	inactive
COc1cccc(NC(=O)c2sc(NC(=O)c3ccncc3)nc2C)c1	inactive

Fetched by structure from above:
SMILES	Potency
CCOc1cc(/C=N/NC(=O)c2ccccn2)ccc1OC(=O)c1ccc(F)cc1	inactive
CC(C)Sc1nnc(NC(=O)c2ccco2)s1	inconclusive: 18.3 µM [activator, partial curve]

Arranged by heavy-atom count (ascending): part of the list above.
SMILES	Potency
CC(=O)c1ccc(N2CCN(C(=O)c3cccs3)C(C)C2)c(F)c1 (stereo not given)	inconclusive: 22.4 µM [inhibitor, single point]
CCOc1cc(/C=N/NC(=O)c2ccccn2)ccc1OC(=O)c1ccc(F)cc1	inactive
COc1ccc(OC)c(-c2nn(-c3ccccc3)cc2C(=O)NCC(c2cccs2)N2CCOCC2)c1 (stereo not given)	inconclusive: 23.1 µM [inhibitor, single point]

Additional structures follow.

SMILES	Potency
Cn1nnnc1Sc1ncnc2scc(-c3ccc([N+](=O)[O-])cc3)c12	active: 7.3 µM
O=C(Nc1cc([N+](=O)[O-])ccc1O)c1cccc(NC(=O)c2ccco2)c1	inconclusive: 35.5 µM [inhibitor, single point]
CC(c1ccccn1)N(C)C(=O)c1ccc2nc(Cc3ccccc3F)oc2c1 (stereo not given)	inconclusive: 13 µM [activator, partial curve]
COCc1ccc(O)c2ncccc12	inconclusive: 29.1 µM [inhibitor, single point]
CC(=O)c1ccc(Nc2nc3ccccc3nc2NS(=O)(=O)c2cccs2)cc1	active: 11.6 µM
Cc1ccccc1NC(=O)NNC(=O)COc1ccc2ccccc2c1	inactive
CNc1nc(C)c(C(=O)c2ccc(Cl)cc2)s1	inactive
CCOc1ccc(S(=O)(=O)N2CCC(C(=O)NC3CCCCC3)CC2)cc1	inactive
O=C1/C(=C\c2cc(Br)cc(Br)c2O)SC(=S)N1Cc1ccccc1	active: 23.1 µM
Cc1cccc(C)c1NC(=S)N(CCN(C)C)Cc1cccs1	inactive
COc1ccc(Nc2nc(-c3ccccc3)c3ccccc3n2)cc1	inconclusive: 25.9 µM [inhibitor, partial curve, poor fit]
Cc1cccc(NC(=O)[C@H](Cc2c[nH]c3ccccc23)NC(=O)[C@@H]2Cc3ccccc3CN2)c1	inconclusive: 0.058 µM [activator, full curve, poor fit]
Cc1ccc(/C=N/NC(=O)Cc2c(F)cccc2Cl)s1	inconclusive: 20.6 µM [activator, single point]
O=C1c2ccccc2C(=O)c2c(NCc3cccnc3)cccc21	inactive
O=C(CS(=O)(=O)c1ccc(F)cc1)N1CCN(c2ccccc2)CC1	inconclusive: 23.1 µM [activator, single point]
O=C(O)CN1C(=O)C(=O)N(Cc2ccc(Cl)c(Cl)c2)C1=O	inactive
CCCCOc1ccc(CSCCN=C(N)N)cc1	inconclusive: 23.1 µM [activator, partial curve]
Cc1ccc(OCC(=O)N(C)CC(=O)NCc2ccco2)c(Br)c1	inconclusive: 29.1 µM [activator, single point]
CCCc1c(C(=O)N/N=C/C(C)=C/c2ccccc2)nnn1-c1nonc1N	inconclusive: 5.8 µM [activator, partial curve]
CCOc1ccc(N2C(=O)c3ccc(C(=O)OCc4c(C)noc4C)cc3C2=O)cc1	inconclusive: 1.03 µM [inhibitor, single point]
Cc1ccccc1NC(=O)/C(C#N)=C\c1ccsc1	inconclusive: 14.6 µM [activator, single point]
Cc1ccc(S(=O)(=O)N2CCCCC2)cc1NC(=O)COc1ccccc1	inconclusive: 20.6 µM [inhibitor, single point]
